Data on three sequences can be found in publication PMC6053351.

Construct, isoform or probe ends are uncertain for at least one entry. At least one verdict rests on a figure or table, not on a statement of the authors.

For the data set, the system named is TZAP zinc finger protein. The data set is described as follows: fluorescence polarization. Conditions: positive control; FPA with dsDNA: 25 mM Tris pH 7.4, 50 nM FAM-DNA, 200 ul; recombinant protein; label: 5'-FAM on sense strand. In general terms: Polarisation of emitted light reports the rotation of a fluorescent probe.
Turning to “ATAATTTATATTTATTATTTTATTATAATTTATATAATTTATAT (double strand) [AT-rich]”, the binding result is given as “binds”.

Consider “GATCTTTAGTTAACTTCCTCTCTGTCTGCAGGCCACTCCAGATC (double strand) [T1]”, for which the binding result is given as “binds”.

Turning to “GCGGCCCGCGCCCGCCGCCCCGCCGCGGCCCGCGCGGCCCGCGC (double strand) [GC-rich]”, the binding result was “binds”.
